The results in this text go back to patent EP4825852A1, “COMPOUND HAVING PROTEIN TYROSINE KINASE BTK-DEGRADING ACTIVITY, AND PREPARATION METHOD THEREFOR AND USE THEREOF” (dated 2026).

In one experiment the test system is TMD8 cells. As to the kind of experiment: TMD8 cell proliferation assay (CTG). To be noted: read-out: TMD8 IC50, 72 h incubation, cell growth inhibition. The method, then:
(§1) Mino or TMD8 cells were cultured in RPMI 1640 medium containing 10% fetal bovine serum (Gibco). After reaching the logarithmic growth phase, cells were collected, counted and seeded into 96-well plates at 2000 cells/well. Following overnight incubation, compounds were added to reach final concentrations of 1 µM, 200 nM, 40 nM, 8 nM, 1.6 nM, 0.32 nM, 0.064 nM, 0.0128 nM, 0.00256 nM and 0.00051 nM, with a final DMSO concentration of 0.2%. 0.2% DMSO and blank RPMI 1640 medium (without cells and compounds) were set as vehicle control and negative control, respectively. Two replicates were set for each concentration. After the test compound was mixed, the 96-well plate was placed in a 37°C, 5% CO2 incubator and cultured (Mino cells were incubated for 96 h, REC-1 and TMD8 cells were incubated for 72 h). After incubation, the plates were placed at room temperature, 50 µL of CTG reagent was added, and the plates were shaken for 2 min and incubated at room temperature for 10 min. The luminescence signal (RLU) in each well was measured using a microplate reader to calculate the cell growth inhibition rate, followed by fitting a dose-response curve to determine the half-inhibitory concentration (IC50). Table 1: IC50 of the exemplary compounds against TMD8/Mino cells

A further experiment has as its system Mino cells. As to the kind of experiment: Mino cell proliferation assay (CTG). To be noted: read-out: Mino IC50, 96 h incubation, cell growth inhibition. The method, then:
as §1

Structures were worked out from names or drawings and are uncertain.

For `Cc1c(NC(=O)c2ccc(C(C)(C)O)cc2F)cc(F)cc1-c1cc(Nc2ccc(N3CCN(C(=O)[C@H]4C[C@@H](OCCNc5cccc6c5C(=O)N(C5CCC(=O)NC5=O)C6=O)C4)C[C@@H]3C)cn2)c(=O)n(C)c1` (some centres unmarked), the concentration for half-maximal inhibition (IC50) in the experiment with TMD8 cells was found to be 2.7 nM.
As to `CN1CCN([C@@H]2CCCN(c3cnc(C(N)=O)c(Nc4ccc(C5CCN(C(=O)CN6CCC(n7ccc8c(N9CCC(=O)NC9=O)cc(Cl)cc87)CC6)CC5)cc4)n3)C2)C1=O`, the IC50 in the experiment with TMD8 cells worked out at 1.5 nM; in the experiment on Mino cells it was 0.81 nM.
As to `Cc1c(NC(=O)c2ccc(C(C)(C)O)c(F)c2F)cc(F)cc1-c1cc(Nc2ccc(N3CCN(CC4CN(c5cc(F)c(C6CCC(=O)NC6=O)c(F)c5)C4)C[C@@H]3C)cn2)c(=O)n(C)c1` (some centres unmarked), the half-inhibitory concentration (IC50) with Mino cells stood at 7.73 nM.
In the case of `Cc1c(NC(=O)c2ccc(C(C)(C)O)c(F)c2F)cc(F)cc1-c1cc(Nc2ccc(N3CCN(CC4CN(c5cc(F)c(C6CCC(=O)NC6=O)c(F)c5)C4)CC3)cn2)c(=O)n(C)c1` (centres unmarked), the IC50 amounted to 9.9 nM with TMD8 cells and 3.62 nM with Mino cells.
As to `CN1CCN([C@@H]2CCCN(c3cnc(C(N)=O)c(Nc4ccc(C5CCN(C(=O)CN6CCC(n7ncc8c(N9CCC(=O)NC9=O)cccc87)CC6)CC5)cc4)n3)C2)C1=O`, the IC50 with TMD8 cells worked out at 1.7 nM; in the experiment on Mino cells, 0.2 nM.
